Experimental data from PubChem BioAssay AID330 (DTP/NCI, 2004).
The list shows only some results of the screen, not a fair sample: it is rich in T/C values a quarter to a half above the control, in often repeated tests (any T/C) and in doses without a T/C. Other doses and runs of a compound stand elsewhere. T/C is the treated group as % of the vehicle group. Some doses have a count of surviving animals in place of a T/C: the source files T/C as zero there, which appears to mark a toxic dose or a test without result, not a measured value. Some doses without a T/C left all or most animals alive at the check, yet need not have been tolerated: survival well below the control is almost never listed, so the zero probably covers shortened survival too. Counts of survivors are from the toxicity check (mostly the fifth day) where no day follows; animals may have died later. Schedule codes are those of the source, read here as Q, the interval in days (D) or hours (H), X, the number of doses. Some entries hold several experiments; their values stand side by side, smallest first. Brackets with × give the number of equal values in this list. Where survival is the endpoint, this PubChem deposit counts one and a half times the control or more as active, and values a quarter to a half above the control carry no call in these data; other NCI protocols may use other cut-offs. Some T/C values are followed by the survivors on the day toxicity was checked, most often the fifth; where none is given, no animal had died by that day.

Tested on: P388 leukemia ip, CD2F1 mice, survival T/C
Assay: NCI In Vivo Anticancer Drug Screen. Data for tumor model P388 Leukemia (intraperitoneal) in CD2F1 (CDF1) mice
Conditions: T/C endpoint: median survival time, higher T/C = longer survival
[1] = dose: 50.0 mg/kg/injection, schedule: Q01DX009 (ip), vehicle: saline
[2] = dose: 100.0 mg/kg/injection, schedule: Q01DX009 (ip), vehicle: saline
[3] = dose: 200.0 mg/kg/injection, schedule: Q01DX009 (ip), vehicle: saline
[4] = dose: 600.0 mg/kg/injection, schedule: Q01DX009 (ip), vehicle: saline
[5] = dose: 100.0 mg/kg/injection, schedule: Q01DX009 (ip), vehicle: Klucel (hydroxypropylcellulose) (HPC)
[6] = dose: 200.0 mg/kg/injection, schedule: Q01DX009 (ip), vehicle: Klucel (hydroxypropylcellulose) (HPC)
[7] = dose: 200.0 mg/kg/injection, schedule: Q01DX005 (ip), vehicle: saline
[8] = dose: 200.0 mg/kg/injection, schedule: Q04DX003 (ip), vehicle: saline with Tween-80
[9] = dose: 240.0 mg/kg/injection, schedule: Q01DX005 (ip), vehicle: Klucel (hydroxypropylcellulose) (HPC)
[10] = dose: 50.0 mg/kg/injection, schedule: Q01DX009 (ip), vehicle: saline with Tween-80
[11] = dose: 50.0 mg/kg/injection, schedule: Q01DX009 (ip), vehicle: Klucel (hydroxypropylcellulose) (HPC)
[12] = dose: 200.0 mg/kg/injection, schedule: Q01DX005 (ip), vehicle: Klucel (hydroxypropylcellulose) (HPC)
[13] = dose: 200.0 mg/kg/injection, schedule: Q01DX009 (ip), vehicle: saline with Tween-80
[14] = dose: 200.0 mg/kg/injection, schedule: Q04DX003 (ip), vehicle: saline
[15] = dose: 400.0 mg/kg/injection, schedule: Q01DX009 (ip), vehicle: saline with Tween-80
[16] = dose: 120.0 mg/kg/injection, schedule: Q01DX005 (ip), vehicle: saline
[17] = dose: 240.0 mg/kg/injection, schedule: Q01DX005 (ip), vehicle: saline
[18] = dose: 100.0 mg/kg/injection, schedule: Q01DX009 (ip), vehicle: saline with Tween-80

O=c1n[n+]([O-])ccn1C1OC(CO)C(O)C1O (configuration not stated) was tested, and the T/C [1] was 136 % of control, the T/C [2] was 135 and 138 % of control [5 of 6 alive] and the T/C (dose: 133.5 mg/kg/injection, schedule: Q01DX009 (ip), vehicle: saline) was 148 % of control. The T/C [3] was 136, 165, 167, 183 % of control, the T/C (dose: 300.0 mg/kg/injection, schedule: Q01DX009 (ip), vehicle: saline) was 139 % of control and the T/C [4] was 95 % of control. The survivor count [4] was 0 of 6 (2×) and 3 of 10.

CCOC(=O)Nc1nc2c(SC#N)cc(C)cc2s1 was tested, and the survivor count [5] was 5 of 6 and the survivor count [6] was 0 of 6.

For CN(C)CCC(=O)C(=Cc1ccc(Cl)c(Cl)c1)C(=O)CCN(C)C, the survivor count [7] was 1 of 5 and the survivor count (dose: 400.0 mg/kg/injection, schedule: Q01DX005 (ip), vehicle: saline) was 0 of 5.

In the case of CN1C2CCC1c1c([nH]c3ccccc13)C2 (configuration not stated), the survivor count (dose: 240.0 mg/kg/injection, schedule: Q01DX005 (ip), vehicle: saline with Tween-80) is reported as 0 of 6.

With O=C(c1ccccc1)C(O)O the survivor count [8] was 5 of 6 and the survivor count (dose: 400.0 mg/kg/injection, schedule: Q04DX003 (ip), vehicle: saline with Tween-80) was 1 of 6.

CN(C)C(=O)c1ccc(SC(=S)NCc2ccccc2)cc1 was tested, and the survivor count [9] was 0 of 6.

For CCCCOP(=O)(O)OCCCC.[V], the survivor count [10] was 5 of 6.

For CS/N=C(/c1ccc(/C(=N/SC)N(C)C)cc1)N(C)C, the survivor count [9] was 1 of 6.

For O=P(C(=S)NC1CC2C=CC1C2)(c1ccccc1)c1ccccc1 (configuration not stated), the survivor count [11] was 6 of 6, the survivor count [5] was 6 of 6 and the survivor count [6] was 5 of 6.

With OC1C(O)C(O)C(O)C(O)C1O.[Cu+2].[Cu] (configuration not stated) the survivor count (dose: 25.0 mg/kg/injection, schedule: Q01DX005 (ip), vehicle: Klucel (hydroxypropylcellulose) (HPC)) was 0 of 6, the survivor count (dose: 50.0 mg/kg/injection, schedule: Q01DX005 (ip), vehicle: Klucel (hydroxypropylcellulose) (HPC)) was 0 of 6 and the survivor count (dose: 100.0 mg/kg/injection, schedule: Q01DX005 (ip), vehicle: Klucel (hydroxypropylcellulose) (HPC)) was 0 of 6. The survivor count [12] was 0 of 6.

For COc1ccc2c(c1OC)C(=O)OC2c1cc(Br)c(O)c(C2OC(=O)c3c2ccc(OC)c3OC)c1 (configuration not stated), the survivor count (dose: 25.0 mg/kg/injection, schedule: Q01DX009 (ip), vehicle: saline with Tween-80) was 6 of 6, the survivor count [13] was 6 of 6 and the survivor count [14] was 6 of 6. The survivor count [15] was 6 of 6.

With CC(=O)SC1C(=O)N(C)C(SC(C)=O)C(=O)N1C (configuration not stated) the survivor count (dose: 25.0 mg/kg/injection, schedule: Q01DX009 (ip), vehicle: saline) was 4 of 6, the survivor count [1] was 5 of 6 and the survivor count [2] was 2 of 6. The survivor count [3] was 0 of 6.

In the case of C[Si](C)(C)O/C=C1\CCCCC1=O, the survivor count [13] is reported as 3 of 6.

For CCCCCCC(/C=C/c1ccc(Cl)c(Cl)c1)=N\NC(=O)C[N+](C)(C)C, the survivor count [10] was 2 of 6, the survivor count [2] was 3 of 6 and the survivor count [3] was 0 of 6.

For Cc1cc(C)c2c(c1)CC(C)(C)CC2(O)C1CCCCN1 (configuration not stated), the survivor count [12] was 0 of 5.

COc1cccc2c1C(=O)c1c(O)c3c(c(O)c1C2=O)C[C@@](O)(C(C)=O)C[C@@H]3OC1CC(NCc2ccccc2)C(O)C(C)O1 (some centres not stated) was tested, and the T/C (dose: 0.39 mg/kg/injection, schedule: Q01DX009 (ip), vehicle: water) was 137 % of control, the T/C (dose: 0.78 mg/kg/injection, schedule: Q01DX009 (ip), vehicle: water) was 137 % of control and the T/C (dose: 4.7 mg/kg/injection, schedule: Q04DX003 (ip), vehicle: water) was 129 % of control. The survivor count (dose: 12.5 mg/kg/injection, schedule: Q01DX009 (ip), vehicle: water) was 6 of 6, the survivor count (dose: 30.0 mg/kg/injection, schedule: Q04DX003 (ip), vehicle: water) was 7 of 8 and the survivor count (dose: 50.0 mg/kg/injection, schedule: Q04DX003 (ip), vehicle: water) was 8 of 8.

CCOC1OCN(C)CC1(C)C (configuration not stated) was tested, and the T/C [1] was 140 % of control and the T/C [3] was 140 % of control.

In the case of CN1CC=C(c2ccccc2)CC1, the survivor count (dose: 50.0 mg/kg/injection, schedule: Q01DX005 (ip), vehicle: saline) is reported as 4 of 6, the survivor count (dose: 100.0 mg/kg/injection, schedule: Q01DX005 (ip), vehicle: saline) is reported as 0 of 6 and the survivor count [7] is reported as 0 of 6.

NC(=O)N/N=C1/CCCCCC1(c1ccccc1)c1ccccc1 was tested, and the survivor count [9] was 1 of 6.

With NCCc1c[nH]c2ccc(OCc3ccccc3)cc12 the survivor count [14] was 6 of 6 and the survivor count (dose: 400.0 mg/kg/injection, schedule: Q04DX003 (ip), vehicle: saline) was 0 of 6.

With Cc1c(O)c2ccccc2c2c1sc(NCCCN(CCO)CCO)[n+]2C the survivor count (dose: 60.0 mg/kg/injection, schedule: Q01DX005 (ip), vehicle: saline) was 2 of 6, the survivor count [16] was 0 of 6 and the survivor count [17] was 0 of 6.

In the case of OC1CCCSc2ccccc21 (configuration not stated), the T/C [18] is reported as 144 % of control.

For C=CCN(CC=C)P(=O)(N(CC=C)CC=C)N(CC=C)CC=C, the survivor count [12] was 0 of 6.

Cc1cccc(Nc2c(C(=O)O)cnc3cc4c(cc23)OCO4)c1 was tested, and the survivor count [9] was 6 of 6.

CCCCCCCC/C=C\CCCCCCCC(=O)OCCCCCCCCCCCC was tested, and the survivor count (dose: 25.0 mg/kg/injection, schedule: Q01DX012 (ip), vehicle: saline with Tween-80) was 5 of 5 on day 2.

For O=C(O)c1ccccc1C(=O)O, the survivor count (dose: 50.0 mg/kg/injection, schedule: Q01DX009 (ip), vehicle: water) was 6 of 6.

N=C(N)c1ccc2oc(/C=C/c3cc4ccc(C(=N)N)cc4o3)cc2c1 was tested, and the T/C (dose: 100.0 mg/kg/injection, schedule: Q04DX003 (ip), vehicle: suspension in saline) was 149 % of control and the T/C (dose: 200.0 mg/kg/injection, schedule: Q04DX003 (ip), vehicle: suspension in saline) was 147 % of control.

In the case of CCCCCCC1NC1Cc1ccccc1 (configuration not stated), the survivor count [18] is reported as 0 of 6, the survivor count [13] is reported as 0 of 6 and the survivor count [15] is reported as 0 of 6.

With COc1cc(OC)c(OC)cc1/C=C/C1=C(C)C(=O)CC(c2cc(OC)c(OC)cc2OC)C1C (configuration not stated) the survivor count (dose: 400.0 mg/kg/injection, schedule: Q01DX001 (ip), vehicle: Klucel (hydroxypropylcellulose) (HPC)) was 6 of 6.

For COc1c2c(c(OC)c3c1C(=O)c1ccccc1C3=O)C(=O)CCC2, the survivor count (dose: 120.0 mg/kg/injection, schedule: Q01DX005 (ip), vehicle: saline with Tween-80) was 6 of 6.

O=S1(=O)C2C=CC1CCCC2 was tested, and the survivor count [2] was 6 of 6 and the survivor count [3] was 6 of 6.

In the case of O=C1CN(C2CC2N2CC(=O)OC(=O)C2)CC(=O)O1 (configuration not stated), the survivor count [8] is reported as 5 of 6.

For CCOC(=O)c1cc2c(OC)c(OC)ccc2cc1N, the survivor count (dose: 200.0 mg/kg/injection, schedule: Q01DX009 (ip), vehicle: other) was 4 of 6 and the survivor count (dose: 400.0 mg/kg/injection, schedule: Q01DX009 (ip), vehicle: other) was 1 of 6.

With NC(N)=N/N=C\c1ccnc2ccccc12 the survivor count [16] was 0 of 6 and the survivor count [17] was 0 of 6.

With N#CSCc1cc(Cl)c(Cl)cc1Cl the survivor count (dose: 200.0 mg/kg/injection, schedule: Q04DX002 (ip), vehicle: Klucel (hydroxypropylcellulose) (HPC)) was 1 of 6 and the survivor count (dose: 400.0 mg/kg/injection, schedule: Q04DX002 (ip), vehicle: Klucel (hydroxypropylcellulose) (HPC)) was 0 of 6.

For O=P1(N(CCCl)CCCl)Nc2cccc3cccc(c23)N1, the T/C [11] was 128 % of control.

In the case of Brc1ncc2[nH]cnc2n1, the survivor count (dose: 200.0 mg/kg/injection, schedule: Q01DX005 (ip), vehicle: saline with Tween-80) is reported as 4 of 6.
